Molecules are shown by their SMILES. The list shows only some results of the screen, not a fair sample: its compounds were picked by chemical class. Not every dose and run of a compound is shown. T/C: endpoint of the treated group in % of that of the vehicle group. For survival time, the PubChem record calls one and a half times the control and up active, and a quarter to a half above the control has no call in these data; cut-offs in other NCI protocols can differ. Some entries show no survivor count and are marked so; the dose need not have been tolerated. Schedules are NCI's codes, read here as Q, the interval in days (D) or hours (H), X, the number of doses. Some entries hold several experiments; their values stand side by side, smallest first.

From PubChem BioAssay AID236 (DTP/NCI, 2004) come the findings set out here.

This assay relates to AK4 lymphoid leukemia ip, C3AKF1 mice, survival. The assay is described as follows: NCI In Vivo Anticancer Drug Screen. Data for tumor model AK4 Lymphoid Leukemia (intraperitoneal) in C3AKF1 (CHKRF1) mice. To be noted: T/C endpoint: median survival time, schedule: Q01DX010 (ip), vehicle: saline, higher T/C = longer survival. On the procedure:
The antitumor activity of compounds was measured in mice bearing transplantable tumors. Survival or tumor size were measured and the results are expressed as the measurement made in the treated group (T) divided by the measurement made in the vehicle treated control group (C). The tumor model used in this assay is AK4 Lymphoid Leukemia (intraperitoneal) in C3AKF1 (CHKRF1) mice

`NC(Cc1ccccc1N(CCCl)CCCl)C(=O)O` (stereo not given): the T/C is 110 [survivor count not shown] and 127 % of control [survivor count not shown] (dose: 0.25 mg/kg/injection); 140 [survivor count not shown] and 183 % of control [survivor count not shown] (dose: 0.5 mg/kg/injection); 133 [survivor count not shown] and 170 % of control [survivor count not shown] (dose: 1.0 mg/kg/injection); 130 % of control [survivor count not shown] (dose: 2.0 mg/kg/injection).
As for `ClCCNCCCl`, the T/C runs as follows: (dose: 18.8 mg/kg/injection) 111 % of control [survivor count not shown]; (dose: 37.5 mg/kg/injection) 133 % of control [survivor count not shown]; (dose: 75.0 mg/kg/injection) 138 % of control [survivor count not shown].
`ClCCN(CCCl)Cc1nc2ccccc2[nH]1`: the T/C by setting is: (dose: 1.25 mg/kg/injection) 100 % of control [survivor count not shown]; (dose: 2.5 mg/kg/injection) 94 % of control [survivor count not shown]; (dose: 5.0 mg/kg/injection) 122 % of control [survivor count not shown]; (dose: 10.0 mg/kg/injection) 105 % of control [survivor count not shown].
Regarding `NC1CCCCC1.NP(=O)(O)N(CCCl)CCCl`, the T/C is 131 [survivor count not shown] and 155 % of control [survivor count not shown] (dose: 15.6 mg/kg/injection); 137 [survivor count not shown] and 144 % of control [survivor count not shown] (dose: 31.3 mg/kg/injection); 131 [survivor count not shown] and 161 % of control [survivor count not shown] (dose: 62.5 mg/kg/injection); 88 [survivor count not shown] and 100 % of control [survivor count not shown] (dose: 125.0 mg/kg/injection).
